{"source": "PubChem BioAssay AID686943 (Drosophila RNAi Screening Center, 2013)", "screen": "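Knockdowns that increase or decrease active ERK after insulin receptor stimulation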 (primary screen)", "system": "Drosophila S2R+ haemocyte-like cells expressing YFP-tagged ERK (Rolled)", "knock-down reagent": "long dsRNA against Drosophila genes", "challenge": "insulin stimulation versus unstimulated cells; dose and duration not given", "read-out": "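Antibody staining for doubly phosphorylated ERK divided by ERK-YFP signal, as plate z-scores, in insulin-treated and untreated cells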", "reading the numbers": "replicate 1, z-score of dpERK with insulin and replicate 2, z-score of dpERK with insulin: higher = more active ERK per ERK-YFP after insulin", "note": "The screen tested about 23,000 reagents; this is a random part of those with a known target gene and a result. 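Extra replicates exist only for a retested subset of genes; insulin dose and duration not given; both raised and lowered dpERK matter.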 A plus sign joins genes that one reagent is predicted to hit. Not all columns of the deposit are shown. Not given: the amount of reagent, the time to read-out."}
{"Target gene": "CG33476", "DRSC id": "DRSC22888", "replicate 1, z-score of dpERK with insulin": 1.86, "replicate 2, z-score of dpERK with insulin": -2.65}
{"Target gene": "CG43155", "DRSC id": "DRSC19642", "replicate 1, z-score of dpERK with insulin": 0.85, "replicate 2, z-score of dpERK with insulin": -0.11}
{"Target gene": "CG43155", "DRSC id": "DRSC19777", "replicate 1, z-score of dpERK with insulin": 0.63, "replicate 2, z-score of dpERK with insulin": 0.71}
{"Target gene": "hubl", "DRSC id": "DRSC06825", "replicate 1, z-score of dpERK with insulin": 0.89, "replicate 2, z-score of dpERK with insulin": -0.09}
{"Target gene": "CG12155", "DRSC id": "DRSC17826", "replicate 1, z-score of dpERK with insulin": -4.56, "replicate 2, z-score of dpERK with insulin": -4.19}
{"Target gene": "beat-VII", "DRSC id": "DRSC13780", "replicate 1, z-score of dpERK with insulin": 1.39, "replicate 2, z-score of dpERK with insulin": 0.52}
{"Target gene": "beat-VII", "DRSC id": "DRSC14743", "replicate 1, z-score of dpERK with insulin": 0.64, "replicate 2, z-score of dpERK with insulin": 0.11}
{"Target gene": "beat-VII", "DRSC id": "DRSC14744", "replicate 1, z-score of dpERK with insulin": 0.14, "replicate 2, z-score of dpERK with insulin": -1}
{"Target gene": "beat-VII", "DRSC id": "DRSC22825", "replicate 1, z-score of dpERK with insulin": -0.1, "replicate 2, z-score of dpERK with insulin": -0.27}
{"Target gene": "snRNA:U1:95Cc + snRNA:U1:95Cb", "DRSC id": "DRSC13641", "replicate 1, z-score of dpERK with insulin": 0.96, "replicate 2, z-score of dpERK with insulin": 0.49}
{"Target gene": "CG8243", "DRSC id": "DRSC07122", "replicate 1, z-score of dpERK with insulin": 0.82, "replicate 2, z-score of dpERK with insulin": -0.38}
{"Target gene": "CG8243", "DRSC id": "DRSC22608", "replicate 1, z-score of dpERK with insulin": 0.9, "replicate 2, z-score of dpERK with insulin": 0.78}
